No constants are given. Whether binding was seen depends on the method and setting. For some of these results: Binding seen in cells or lysates may run through a third protein. Some binding calls cover weakened binding; strength is not graded here. For some of these results: Where a sequence is shown, tags or fusion partners need not be part of it. Blank lines part the entries; values can stand above or below the binder they belong to.
Key:
[1] = molecular target: T1, ADGRV1-CTF (C-terminal fragment, aa 5884-6298) (mouse) (UniProt Q8VHN7); assay: co-IP; cotransfected HEK293 cells, starved 12 h, lysed in 50 mM Tris-HCl pH 7.4, 150 mM NaCl, 1% Triton, 1% NP-40, 2 mM EDTA; anti-Flag M2 or anti-Myc antibody-conjugated agarose, 4 °C overnight; blots against the tags
T1 sequence: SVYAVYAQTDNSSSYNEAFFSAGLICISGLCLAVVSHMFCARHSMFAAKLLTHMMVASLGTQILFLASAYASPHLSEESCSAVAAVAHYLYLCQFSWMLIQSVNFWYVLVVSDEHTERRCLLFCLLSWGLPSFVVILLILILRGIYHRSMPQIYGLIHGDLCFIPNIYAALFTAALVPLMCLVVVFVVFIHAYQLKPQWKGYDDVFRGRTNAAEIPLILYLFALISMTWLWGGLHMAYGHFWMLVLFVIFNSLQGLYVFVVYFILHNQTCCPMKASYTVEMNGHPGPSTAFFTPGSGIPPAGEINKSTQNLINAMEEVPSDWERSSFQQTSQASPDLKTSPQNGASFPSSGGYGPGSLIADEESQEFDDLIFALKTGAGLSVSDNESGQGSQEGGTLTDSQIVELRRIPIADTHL

[2] = molecular target: Flag-ADGRV1a (adhesion G protein-coupled receptor V subfamily member 1, isoform a, aa 4333-6298) (mouse) (UniProt Q8VHN7); assay: as above
[3] = molecular target: Flag-ADGRV1a Y6236fsX1 mutant (mouse) (UniProt Q8VHN7); assay: as above
[4] = molecular target: T2, WHRN-PDZ1 domain, purified (mouse) (UniProt Q80VW5); assay: ITC; ITC200; purified PDZ protein 50 uM, peptide 1 mM; 20 mM Tris, 200 mM NaCl, 2 mM EDTA, pH 7.4; both purified
T2 sequence: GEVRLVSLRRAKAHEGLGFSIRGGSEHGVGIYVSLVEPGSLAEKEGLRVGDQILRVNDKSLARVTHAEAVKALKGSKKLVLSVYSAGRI

binding [1]: binds | binding [2]: binds | binding [3]: no binding
B1: Myc-WHRN (whirlin) (protein, UniProt Q80VW5 1-918)
chain: MNAQLDGLSVSSSSTGSLGSAAAAAGGGGGAGLRLLSANVRQLHQALTALLSEPEREQFTHCLNAYHARRNVFDLVRTLRVLLDSPVKRRLLPMLRLVIPRSDQLLFDQYTAEGLYLPATTPYRQPAWAAPDGAGPGEVRLVSLRRAKAHEGLGFSIRGGSEHGVGIYVSLVEPGSLAEKEGLRVGDQILRVNDKSLARVTHAEAVKALKGSKKLVLSVYSAGRIPGGYVTNHIYTWVDPQGRSTSPPSSLPQPHGSTLRQREDDRRSTLHLLQSGDEKKVNLVLGDGRSLGLTIRGGAEYGLGIYITGVDPGSEAESSGLKVGDQILEVNGRSFLNILHDEAVKLLKSSRHLILTVKDVGRLPHARTTVDQTKWIASSRIGESVANSAGFPGDHTEEGTSKPGFYKGPAGSQVTLSSLGNQTRALLDDQARHLLTEQERATMMYYLAQYRGGTISVEAMVMALFELLNTHAKFSLLSEVRSIISPQDLDRFDHLVLRREIESMKARQPPGPGVGDTYSMVSYSDTGSSTGSHGTSTTVSSARERLLWLIDLMENTLDLEGTGETTQGSTNALPDVSVDDVKSPSEDLPGIKPPPPPPPLAQGHDRLLGQPRKPGREDPAPLSSAAHSGIVFSAPRNRSPPPGTAPTPGPSSAQDSPSSPIYASISHANPSSRKPLDTHLALVNQHPIGPFPRVQSPPHLKSPPAETPGAGACLPPPSPSEHPDAVGANQHFVLVEVHRPDSEPDVNEVRALPQTRTASTLSQLSDSGQTLSEDSGVDAGETEASTSGRGRQTASAKNKNGKEQPRTERTAEGANKPPGLLEPTSTLVRVRKSAATLGIAIEGGANTRQPLPRIVTIQRGGSAHNCGQLKVGHVILEVNGQTLRGKEHKEAARIIAEAFKTKERDYIDFLVTEFNVML

Binder: RRIPIADTHL (peptide, UniProt Q8VHN7 6289-6298) [ADGRV1p, 10-residue C-terminal tail peptide of ADGRV1 harboring the PDZ-binding motif]
binding [4]: no binding (tested: peptide 1 mM titrated with protein 50 uM)
